The list shows a part of the results. Each value is one well over the wells without odorant, computed here; the data are noisy.

For one assay, the system named is OR2T6 N21D/C23G/S243A clone 1432. The assay can be described thus: odorant receptor activation (CRE luciferase / Renilla) (fold of no-odor wells); higher = more activation. The conditions noted are these: 100 µM.
`CCCCCCCC=CC=O` [2-decenal] registered an odorant receptor activation of 1.01.
With `CC(C)C=O` [isobutyraldehyde], the odorant receptor activation stood at 0.921.
The same measure, in the same setting: to `c1cnccn1` [pyrazine] belongs 1.07; to `CC(=O)c1ccccc1` [acetophenone], 1.08.
Turning to `CC(C)C(=O)O` [isobutyric acid], the odorant receptor activation turned out to be 0.674.

A further assay relates to OR2T8 clone 1576. The description is as above. The following applies: 100 µM.
With `CCCCCCCOC(C)=O` [heptyl acetate], the odorant receptor activation was found to be 0.861.
On the same count and under the same terms, for `COc1ccccc1O` [guaiacol] the value was 0.923.
Still for that read-out and setting: to `C=C(C)C1CCC2=CC(=O)CC(C)C2(C)C1` (stereo not given) [amyl laurate] belongs 1.41; to `CC(=O)OCC=C(C)CCC=C(C)C` [geranyl acetate], 1.28.
Same read-out and setting: for `CC(=O)OC1CC2CCC1(C)C2(C)C` (stereo not given) [isobornyl acetate] the value was 1.04; for `CCCCCOC(C)=O` [n-amyl acetate], 1.06; for `CCCCCCOC(=O)CCC` [hexyl butyrate], 0.983.
Compound `CCC1(O)C2(C)CCC(C2)C1(C)C` (stereo not given) [2-ethylfenchol] had an odorant receptor activation of 0.632.
On the same count and under the same terms, for `C=C(C)C1CC=CCC1` (stereo not given) [r-limonene] the value was 0.939; for `CCCCCCC=O` [heptaldehyde], 0.917; for `CC(C)CC(=O)O` [isovaleric acid], 0.881.
The same measure, in the same setting: for `CC(C)(O)CCCC1=CCC(C=O)CC1` (stereo not given) [lyral] the value was 0.957; for `O=C1CCCCCCCCCCCCCCO1` [pentadecalactone], 0.81; for `CCCCCC(=O)O` [caproic acid], 0.752.
Same read-out and setting: for `CCCCCCCCCCC=O` [undecanal] the value was 0.94.
`C=CCc1ccc(O)c(OC)c1` [eugenol] yielded an odorant receptor activation of 0.956.
Same read-out and setting: for `CCCCCCCC=CC=O` [2-decenal] the value was 0.851.
On the same count and under the same terms, to `CC(C)C=O` [isobutyraldehyde] belongs 0.986; to `c1cnccn1` [pyrazine], 0.951.
The same measure, in the same setting: for `CC(C)C(=O)O` [isobutyric acid] the value was 0.961.
